The entries are a selection whose mix differs from that of the whole data set.
What follows are targets tested with COC(=O)C#Cc1ccccc1 [methyl 3-phenylpropiolate] (assay: log2 ratio of iodoacetamide-alkyne labeling of the cysteine site, DMSO over compound (competition); higher = stronger covalent engagement of the cysteine by the compound, active = 1 or more). Conditions: 500 µM; treatment time 1 h; system: HEK293T cell lysate.
In short: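 Three replicates, each with duplicate channels, were prepared from HEK293T lysate (2 mg/mL) treated with vehicle or electrophile at 500 µM for 1 h at ambient temperature. Iodoacetamide alkyne was then applied for 1 h, and samples were clicked to sCIP-TMT reagents, pooled, trypsin-digested overnight at 37 °C, enriched on streptavidin, acid-eluted and analysed on Orbitrap Eclipse LC-MS/MS with FAIMS, with FragPipe quantification. The log2 competition ratio per cysteine is the mean control-channel divided by the mean compound-channel reporter intensity. Cysteines quantified in only one replicate were left out.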

Row | Target | log2 ratio of iodoacetamide-alkyne labeling
1 | DYNC1H1 C3147 (UniProt Q14204) | inactive: 0.433
2 | CKAP5 C1019 (UniProt Q14008) | inactive: 0.17
3 | CKAP5 C441 (UniProt Q14008) | inactive: 0.364
4 | UniProt Q13885_C211 | inactive: 0.278
5 | DYNC1H1 C2142 (UniProt Q14204) | inactive: 0.486
6 | DYNC1H1 C1888 (UniProt Q14204) | inactive: 0.266
7 | UniProt Q14574_C804 | inactive: 0.812
8 | EIF4EBP2 C73 (UniProt Q13542) | inactive: 0.291
9 | NCAPH C397 (UniProt Q15003) | inactive: 0.622
10 | SMC1A C1073 (UniProt Q14683) | inactive: 0.271
11 | CUL3 C187 (UniProt Q13618) | inactive: 0.0832
12 | SPTAN1 C1622 (UniProt Q13813) | inactive: -0.0196
13 | GAPVD1 C374 (UniProt Q14C86) | inactive: 0.197
14 | GNL2 C362 (UniProt Q13823) | inactive: 0.0745
15 | SQSTM1 C290 (UniProt Q13501) | inactive: 0.896
16 | CKAP5 C1795 (UniProt Q14008) | inactive: 0.321
17 | PUM1 C964 (UniProt Q14671) | inactive: 0.457
18 | UniProt Q15019_C111 | inactive: 0.706
19 | UniProt Q15004_C54 | inactive: 0.299

Row | Target | log2 ratio of iodoacetamide-alkyne labeling
20 | NCAPD2 C439 (UniProt Q15021) | inactive: 0.313
21 | ZNF638 C1930 (UniProt Q14966) | inactive: -0.212
22 | DCTN1 C791 (UniProt Q14203) | inactive: 0.538
23 | CTTN C246 (UniProt Q14247) | inactive: 0.834
24 | HNRNPD C226 (UniProt Q14103) | inactive: -0.397
25 | SNX1 C318 (UniProt Q13596) | inactive: 0.262
26 | CHD4 C1827 (UniProt Q14839) | inactive: 0.345
27 | WRN C171 (UniProt Q14191) | inactive: 0.312
28 | FHL1 C153 (UniProt Q13642) | inactive: 0.177
29 | BMS1 C101 (UniProt Q14692) | inactive: 0.0847
30 | GAMT C16 (UniProt Q14353) | inactive: 0.275
31 | CAMK2G C453 (UniProt Q13555) | inactive: -0.122
32 | FHL3 C212 (UniProt Q13643) | inactive: 0.0725
33 | CUL2 C721 (UniProt Q13617) | inactive: 0.301
34 | HLTF C461 (UniProt Q14527) | inactive: 0.799
35 | FHL1 C92 (UniProt Q13642) | inactive: 0.228
36 | MCM6 C185 (UniProt Q14566) | inactive: 0.0744
37 | MTMR2 C95 (UniProt Q13614) | inactive: 0.0149

From the supplement of paper PMC11006884
